# Measurements from PubChem BioAssay AID743255 (National Center for Advancing Translational Sciences (NCATS), 2014).
# Protein sequences, listed by entry. Tags and fused reporters are not part of them. Lines headed by an entry give the natural chain unless they say otherwise; changes in a name come on top.
# UniProt O94782: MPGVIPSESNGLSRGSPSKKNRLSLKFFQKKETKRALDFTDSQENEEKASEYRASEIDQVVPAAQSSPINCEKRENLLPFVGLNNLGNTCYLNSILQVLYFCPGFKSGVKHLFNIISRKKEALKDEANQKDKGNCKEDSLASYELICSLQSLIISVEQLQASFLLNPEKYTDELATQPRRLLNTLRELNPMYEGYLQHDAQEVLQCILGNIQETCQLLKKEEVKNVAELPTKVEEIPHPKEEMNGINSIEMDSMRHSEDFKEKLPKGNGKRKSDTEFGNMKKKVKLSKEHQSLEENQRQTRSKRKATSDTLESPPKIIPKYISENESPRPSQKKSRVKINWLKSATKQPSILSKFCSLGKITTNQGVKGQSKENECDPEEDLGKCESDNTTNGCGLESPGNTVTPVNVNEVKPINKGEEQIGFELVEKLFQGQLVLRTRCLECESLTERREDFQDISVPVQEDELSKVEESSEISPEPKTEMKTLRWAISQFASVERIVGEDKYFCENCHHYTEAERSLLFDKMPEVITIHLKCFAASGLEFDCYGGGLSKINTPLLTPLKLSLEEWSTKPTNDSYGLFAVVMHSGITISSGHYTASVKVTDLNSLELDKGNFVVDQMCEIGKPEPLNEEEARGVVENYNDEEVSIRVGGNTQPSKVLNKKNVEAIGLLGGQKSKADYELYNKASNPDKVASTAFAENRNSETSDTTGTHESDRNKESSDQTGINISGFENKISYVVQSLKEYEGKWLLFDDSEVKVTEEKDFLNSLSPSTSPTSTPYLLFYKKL
# About 910 (0.23%) of roughly 390,000 compounds were called active. Inconclusive means that the source gave no clear call. Such entries were picked first, then a sample of the others. The call rests on the fitted dose curve; in most records, active means well fitted inhibition curve with a large enough effect; inconclusive means small, poorly fitted or top-dose-only effect; inactive means no such curve, though single readings can be large or run the other way. Where the call is inconclusive, the potency comes from a doubtful curve fit.
# Biological target: Ubiquitin carboxyl-terminal hydrolase 1 (Homo sapiens) (UniProt O94782)
# Test: Inhibitors of USP1/UAF1: Primary Screen; further: nearly all actives have a fitted effect of over 60% in size
# Details: recombinant USP1/UAF1, Ub-Rhodamine cleavage fluorescence; activity change, negative = inhibition: at 57.1 µM (top of the series)
# How it was run: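 1 nM enzyme complex + cpd, 15 min RT; start with Ub-Rho 150nM final; kinetic fluorescence ex 480/em 540, 6 reads q60 s. Buffer 50mM HEPES pH 7.8, 0.5mM EDTA, 0.1 mg/ml BSA, 1mM TCEP, 0.01% Tween-20.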
# On the % scale 0 is the no-effect control and ±100 the full control effect; potency means the concentration at half of the fitted maximal effect.
Compound,Potency,"activity change, negative = inhibition"
O=C(COC(=O)c1ccc([N+](=O)[O-])s1)Nc1ncc(C(F)(F)F)cc1Cl,"inconclusive: 31.6 µM [inhibitor, partial curve, poor fit]",
CCOCCOc1cc(NCc2ccccc2)c2ncn(C(C)C)c2c1,"inconclusive: 0.112 µM [inhibitor, full curve, poor fit]",
CCCCn1nc2cc(C(=O)NCc3ccco3)ccc2c1OCC,"inconclusive: 224 µM [inhibitor, partial curve, poor fit]",
C[C@@H]1CCCCO[C@@H](CN(C)S(=O)(=O)c2ccccc2)[C@@H](C)CN([C@H](C)CO)C(=O)c2cc(N(C)C)ccc2O1,inactive,
C=CCOc1ccccc1C(=O)/C=C1/C(=O)Nc2ccccc21,inactive,
Cc1cc(C(=O)CSc2nc(N)cc(N)n2)c(C)n1C1CC1,"inconclusive: 10 µM [inhibitor, single point]",
CC(=O)Nc1ccc2c(c1)C(N1CC3CCC(CC3)C1)c1ccccc1-2 (stereo not given),"inconclusive: 10 µM [inhibitor, partial curve]",
CSc1ccccc1NC(=O)CN(C)CC(=O)Nc1ccc(S(=O)(=O)N2CCCC2)cc1,"inconclusive: 35.5 µM [inhibitor, partial curve, poor fit]",
CCCC1=C/C(=C/c2ccc(-c3ccccc3OC)o2)C(=O)O1,inactive,
COc1ccc(-c2cc(C(=O)N3CCN(Cc4ccc5c(c4)OCO5)CC3)on2)cc1OC,"inconclusive: 0.112 µM [inhibitor, full curve, poor fit]",
CC1=NN(c2ccc(N)cc2)C(=O)C1,"inconclusive: 31.6 µM [inhibitor, partial curve]",
COc1cccc(OC)c1C(=O)Nc1cccc(C(C)=O)c1,"inconclusive: 44.7 µM [inhibitor, partial curve]",
CCCCNC(=O)Cn1nc(N2CCN(c3ccccc3OC)CC2)ccc1=O,inactive,
COc1ccc(-c2c(C#Cc3ccsc3)c3cc(-c4cccc5[nH]ccc45)ccc3n2C)cc1,"inconclusive: 15.8 µM [inhibitor, partial curve, poor fit]",
COc1ccc(Cl)cc1NC(=O)COc1cccc2c(=O)n(C)ccc12,"inconclusive: 7.94 µM [inhibitor, partial curve, poor fit]",
Cc1ccccc1C1C(C#N)=C2N=C(N)c3c(sc4c3CCCCC4)N2C2=C1C(=O)CCC2 (stereo not given),inactive,
O=S(=O)(c1cccc(NC(=S)Nc2ccc(Br)cc2Cl)c1)N1CCOCC1,inactive,
Fc1cccc(NC(=S)N2CCn3cccc3C2c2cccnc2)c1 (stereo not given),"inconclusive: 10 µM [inhibitor, partial curve]",
CC(C)(C)OC(=O)N[C@H]1C=C[C@@H](OC(=O)CC(=O)OCC(F)(F)F)C1,"inconclusive: 8.91 µM [inhibitor, partial curve]",
COc1cc(NC(=O)c2noc3c2CC(C(C)(C)C)CC3)cc(OC)c1OC (stereo not given),"inconclusive: 11.2 µM [inhibitor, partial curve]",
COCCn1c(C)cc(O)c(C(c2ccccc2Cl)N2CCN(c3ccccc3)CC2)c1=O (stereo not given),inactive,
CCOc1ccc(-c2cc(CCCC(=O)NCCc3ccc(SC)cc3)no2)cc1,"inconclusive: 89.1 µM [inhibitor, partial curve, poor fit]",

Compound,Potency,"activity change, negative = inhibition"
COc1ccc(CNC(=O)COC(=O)c2cc(-c3ccc(Cl)s3)nc3ccccc23)cc1,"inconclusive: 28.2 µM [inhibitor, partial curve]",
CCCN(CC(=O)Nc1ccccc1OC)C(=O)c1cc(-c2ccccc2)nn1-c1ccccc1,inactive,
COc1ccc(CCNCc2c(C(=O)O)c(C)n(Cc3cccc(C)c3)c2C)cc1OC,"inconclusive: 5.62 µM [inhibitor, partial curve]",
CCCOc1ccc(C(=O)Nc2ccc(NC(=O)c3ccc(Br)cc3)cc2)cc1,"inconclusive: 39.8 µM [inhibitor, partial curve]",
COc1ccc(NC(=O)CN(C)S(=O)(=O)c2ccc3nc(C)sc3c2)cc1Cl,"inconclusive: 2 µM [inhibitor, partial curve]",
Cn1c(C(=O)NCc2ccccc2F)cc2cc(S(=O)(=O)N3CCCCC3)ccc21,"inconclusive: 11.2 µM [inhibitor, single point]",
Cc1ccc(/C=C2\CCC3=C2OC(N)=C(C#N)C3c2ccc(C)cc2)cc1 (stereo not given),"inconclusive: 10 µM [inhibitor, partial curve, poor fit]",
Cc1ccc(-n2nnnc2CN2CCCCC2)cc1,"inconclusive: 3.55 µM [inhibitor, single point]",
O=c1cc(Nc2cccc(Br)c2)[nH]c(=O)[nH]1,inactive,
O=C(CN1C(=O)c2ccccc2S1(=O)=O)NC1CC2CCC1C2 (stereo not given),"inconclusive: 0.708 µM [inhibitor, full curve, poor fit]",
Fc1cccc(Cl)c1/C=N/n1c(-c2cccnc2)n[nH]c1=S,inactive,
Cc1ccc(NS(=O)(=O)c2ccc3[nH]c4c(c3c2)CCCCCC4)cc1C,,inconclusive: -14% [inhibitor]
CCSc1nc(-c2ccc(OC)cc2)ccc1C#N,"inconclusive: 50.1 µM [inhibitor, partial curve, poor fit]",
CCOC(=O)c1c(C)[nH]c(C(=O)NNC(=O)c2ccc(C(C)(C)C)cc2)c1C,"inconclusive: 44.7 µM [inhibitor, partial curve, poor fit]",
CN(C)N1C(N)=C(C#N)C(c2cccs2)C2=C1CCCC2=O (stereo not given),inactive,
CCC(=O)N1CCc2cc(Br)cc(S(=O)(=O)CCC(=O)NCc3ccc(C)cc3)c21,"inconclusive: 3.16 µM [inhibitor, partial curve]",
Cc1cc(O)c(C(c2ccccc2)N2CCN(c3ccccc3F)CC2)c(=O)n1Cc1ccco1 (stereo not given),"inconclusive: 44.7 µM [inhibitor, partial curve, poor fit]",
O=C(O)c1ccc2c(c1)C(=O)/C(=C\c1ccco1)C2=O,"inconclusive: 25.1 µM [inhibitor, partial curve]",
COc1ccc(-n2c(O)c(/C=N/NS(=O)(=O)c3cccc([N+](=O)[O-])c3)c3ccccc3c2=O)cc1OC,"inconclusive: 20 µM [inhibitor, partial curve]",
Cc1ccc(CN2C(=O)C(=O)c3cc(C)ccc32)cc1,"inconclusive: 79.4 µM [inhibitor, partial curve, poor fit]",
CCC(C)(C)C1CCc2[nH]nc(C(=O)NCCN3CCOCC3)c2C1 (stereo not given),"inconclusive: 39.8 µM [inhibitor, partial curve]",
O=C(O)CCn1cc(/C=C/C(=O)c2ccc(Cl)cc2)c(-c2cccc(Br)c2)n1,"inconclusive: 44.7 µM [inhibitor, partial curve]",

Compound,Potency,"activity change, negative = inhibition"
CC(C)c1ccc2[nH]c(O)c(N=NC(=S)NCCc3ccccc3)c2c1,inactive,
Cc1nc(Nc2ccc(C(=O)O)cc2)nc(Nc2ccc(C(=O)O)cc2)c1[N+](=O)[O-],"inconclusive: 56.2 µM [inhibitor, partial curve, poor fit]",
COc1ccc(-c2cc(C(C)=O)c(C)n2CCC(=O)Nc2cccc(C)c2C)cc1,inactive,
C=CCN(C(=O)CCC(=O)O)C1CC(=O)N(c2ccc(OCCC)cc2)C1=O (stereo not given),inactive,
Cc1ccccc1-c1nc(CS(=O)(=O)CC(=O)Nc2c(C)cccc2C)c(C)o1,inactive,
CCc1ccc2c(c1)c(=O)c(S(=O)(=O)c1ccccc1)cn2CC(=O)Nc1cc(C)ccc1C,"inconclusive: 3.16 µM [inhibitor, full curve]",
CC(C)C(CO)N1CCN(Cc2ccccc2)CCC1=O (stereo not given),"inconclusive: 5.01 µM [inhibitor, partial curve]",
COC(=O)c1ccc(NC(=S)Nc2ccccc2)cc1,"inconclusive: 44.7 µM [inhibitor, partial curve]",
COc1cc(C(=O)Nc2ccc(C(F)(F)F)cc2)ccc1OCC(=O)N1CCOCC1,inactive,
COc1ccc(NC(=O)CSC2=NCCN2)cc1,inactive,
COc1ccc(S(=O)(=O)N2CCOCC2)cc1NC(=O)COC(=O)c1ccc([N+](=O)[O-])s1,"inconclusive: 35.5 µM [inhibitor, single point]",
CN1C(=S)N(c2cccnc2)C(=O)/C1=C\c1ccc(C(C)(C)C)cc1,"inconclusive: 25.1 µM [inhibitor, partial curve]",
CN(C)C(=O)/C(=C\c1ccc(-c2cccc([N+](=O)[O-])c2)o1)NC(=O)c1ccccc1,inactive,
Cc1ccc(S(=O)(=O)N2CCCCC2)cc1NC(=O)Cn1ncc(Cl)c(Cl)c1=O,inactive,
COc1ccc(Cl)cc1NC(=S)N(Cc1ccccc1C)CC1CCC(C(=O)O)CC1 (stereo not given),inactive,
COc1ccc(C(=O)C2CCCN(C(=O)c3cccc(N4CCCC4=O)c3)C2)cc1OC (stereo not given),"inconclusive: 0.0891 µM [inhibitor, full curve, poor fit]",
COC(=O)c1ccccc1NC(=O)c1sc2nc(C)cc(C)c2c1NC(=O)c1ccccc1Cl,"inconclusive: 0.398 µM [inhibitor, full curve, poor fit]",
CC1CN(Cc2cc(=O)oc3cc(O)ccc23)CC(C)O1 (stereo not given),"inconclusive: 39.8 µM [inhibitor, partial curve, poor fit]",
COc1ccc(CNC(=O)c2ccc(NC(=O)N3CCSc4ncccc43)cc2)c(OC)c1,inactive,
COc1ccccc1N(CC(O)COc1ccccc1C)S(=O)(=O)c1ccccc1 (stereo not given),"inconclusive: 39.8 µM [inhibitor, partial curve, poor fit]",
Cc1ccccc1C(=O)Nc1cccc(C(=O)OCc2cc(=O)n3c(C)csc3n2)c1,inactive,

# Random excerpt: 2 entries already listed, in no set order.
Compound,Potency,"activity change, negative = inhibition"
COc1ccc(S(=O)(=O)N2CCOCC2)cc1NC(=O)COC(=O)c1ccc([N+](=O)[O-])s1,"inconclusive: 35.5 µM [inhibitor, single point]",
C=CCN(C(=O)CCC(=O)O)C1CC(=O)N(c2ccc(OCCC)cc2)C1=O (stereo not given),inactive,
